This is an account of results in paper PMC8366450.

Protein sequences, listed by entry. Tags and fused reporters are not part of them. Lines headed by an entry give the natural chain unless they say otherwise; changes in a name come on top.
UniProt Q9H2A7: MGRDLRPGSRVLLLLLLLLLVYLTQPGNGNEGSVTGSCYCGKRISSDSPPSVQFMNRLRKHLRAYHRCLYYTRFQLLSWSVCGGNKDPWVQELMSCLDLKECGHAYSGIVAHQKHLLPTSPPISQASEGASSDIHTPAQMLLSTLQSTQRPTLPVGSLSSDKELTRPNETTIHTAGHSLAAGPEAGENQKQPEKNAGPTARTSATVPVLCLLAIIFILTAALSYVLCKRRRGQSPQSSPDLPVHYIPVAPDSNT

The target of this assay is C-X-C motif chemokine ligand 16 (human) (UniProt Q9H2A7). In words: peptide or protein array; HuProt v3.1 human proteome microarray; >20 000 human recombinant proteins immobilised on the array; purified His-V5-CPPED1 applied; both purified.

No constants are given. Whether binding was seen depends on the method and setting. A result given as binding can be weak or reduced; the word gives no strength.

For the substance “human recombinant CPPED1 with N-terminal His-V5 dual tag (from UniProt Q9BRF8 1-314) (enzyme)”, the binding result was “binds”.
